Measured values reported in PubChem BioAssay AID1347423 (Functional Genomics Laboratory (NCATS/FGL), 2020).
In all, about 52,000 sequences went through this assay and about 210 (0.4%) were called active.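 Rule for the calls: active = gene whose silencing raises cell survival under the drug, median off-target-corrected z-score across its silencing RNAs 2 or more; inactive = the rest.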 The list shows a part of the results.

Assay: Resistance to Poly (ADP-Ribose) Polymerase inhibitor: Gene Identification via Genome-wide siRNA Screen
Settings: mouse BRCA2 R2336H ES cells, olaparib, CellTiter-Glo viability; stronger effect = higher value
Summary of the method: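 Mouse BRCA2 R2336H ES cells were reverse-transfected with siRNA (20 nM final), treated at 48 h with 500 nM olaparib, and read by CellTiter-Glo after 72 h. Scores: MAD-based z per siRNA, median per gene, seed off-target correction.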

Sequence | z-score
GGAGUGUUGGGAGCAGGAATT against Tnni1 | inactive: -1.92
GCCUUCAAGUAUUUGGAAGTT against Mllt2h | inactive: 1.62
GGACGAUGGUUCCUGAAAATT against Snap91 | inactive: 0.94
GGAAAUCACCAGAGCUGAUTT against Atp6v0a2 | inactive: 1.56
GCCUGUUUUAUUGUGUGACTT against Gna13 | inactive: 0.429
GGUGGUACGCAGACUAAAUTT against Ulk1 | inactive: -0.0686
GGAGCUGAACCUGAGCUAUTT against Tlr9 | inactive: -0.0823
GGAACUUUUUCAGAUGCAGTT against A930038C07Rik | inactive: 0.525
GGAGAUGGCGAAAACUCACTT against Rrbp1 | inactive: -0.263
GGUGGUGGAAUGCUAAAAATT against Gys1 | inactive: 3.03
GGCCUUCAUUGAGAUGAACTT against Ptbp1 | inactive: 0.228
GGCAAGGACUCCAAGGACATT against Wdrx1 | inactive: 0.22
GGUCUGAGCUGUGAUUACATT against AU016977 | inactive: -0.757
CCAGUUGUAUAUGGUGUAGTT against 0610025P10Rik | inactive: -2.1
GGAAAUGGCACCAAUGUCATT against Slc25a24 | inactive: 0.224
GGGAUAUUCAAAAUACUAGTT against Hells | inactive: -1.54
GGCAAGAUCCACAAUGAUGTT against Lgals2 | inactive: 0.913
GGUGGGUCAAUGAUCCAGGTT against Fabp9 | inactive: -2.63
GCCUUCUAAGUCUGCACCATT against Hist1h2bb | inactive: 0.35
CGUGCAUUCUUAUCACAGCTT against Hsbp1 | inactive: -0.279
GGAUUCCAAAUGCUUACAATT against BC003322 | inactive: -0.00548
GGACAUAUUUCCAACAUGUTT against Mobkl2b | inactive: 1.35
GCACUUUCGGUCAAGUGGATT against Pou2f3 | inactive: 1.65
GGCGGUGACAGAGCUGAAUTT against Ywhah | inactive: 0.0286
CCAGGGACUUAGGUUUAUCTT against Thap11 | inactive: -0.331
GGAAGCAUUCAAGAACAUCTT against Rab11b | inactive: -0.365
GGGUCCUUUGAAAUUGUGGTT against Usp37 | inactive: 0.449
CGACUACCAACAGUUCAUATT against P2rxl1 | inactive: 0.959
GGAAGAAAGGAAAAUCAGATT against Nsmaf | inactive: -0.534

Two records picked at random from the list so far:
Sequence | z-score
GGAGAUGGCGAAAACUCACTT against Rrbp1 | inactive: -0.263
GGGAUAUUCAAAAUACUAGTT against Hells | inactive: -1.54
